Measurements taken from publication PMC7242393.
These are yes or no findings as the source states them, for the method shown. Binding seen in cells or lysates may run through a third protein. Some entries that bind do so weakly or less than the wild type.

By UniProt entry, the sequences of proteins in these tests, tags left out.
UniProt O15169: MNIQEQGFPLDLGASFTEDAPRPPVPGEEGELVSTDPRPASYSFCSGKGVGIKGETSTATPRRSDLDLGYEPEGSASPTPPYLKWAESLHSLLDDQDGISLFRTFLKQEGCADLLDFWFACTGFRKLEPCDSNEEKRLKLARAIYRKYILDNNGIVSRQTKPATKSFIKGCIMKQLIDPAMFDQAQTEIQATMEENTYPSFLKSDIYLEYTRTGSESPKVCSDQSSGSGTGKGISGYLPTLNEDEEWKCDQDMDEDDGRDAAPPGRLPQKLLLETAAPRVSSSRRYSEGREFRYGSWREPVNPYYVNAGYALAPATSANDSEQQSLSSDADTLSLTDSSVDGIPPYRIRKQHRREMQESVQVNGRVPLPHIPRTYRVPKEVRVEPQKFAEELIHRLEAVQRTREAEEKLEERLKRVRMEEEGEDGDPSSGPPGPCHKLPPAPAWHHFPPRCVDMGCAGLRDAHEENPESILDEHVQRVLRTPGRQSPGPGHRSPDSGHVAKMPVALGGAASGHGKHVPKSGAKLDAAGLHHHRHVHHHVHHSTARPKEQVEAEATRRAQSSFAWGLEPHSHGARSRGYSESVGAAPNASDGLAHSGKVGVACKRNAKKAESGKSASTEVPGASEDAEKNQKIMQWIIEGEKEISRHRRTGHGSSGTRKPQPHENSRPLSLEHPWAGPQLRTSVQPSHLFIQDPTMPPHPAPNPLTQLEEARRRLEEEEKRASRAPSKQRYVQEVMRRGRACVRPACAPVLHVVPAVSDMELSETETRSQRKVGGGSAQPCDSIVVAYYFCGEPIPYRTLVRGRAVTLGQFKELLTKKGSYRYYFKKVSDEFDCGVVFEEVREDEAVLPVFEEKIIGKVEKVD
UniProt O00429: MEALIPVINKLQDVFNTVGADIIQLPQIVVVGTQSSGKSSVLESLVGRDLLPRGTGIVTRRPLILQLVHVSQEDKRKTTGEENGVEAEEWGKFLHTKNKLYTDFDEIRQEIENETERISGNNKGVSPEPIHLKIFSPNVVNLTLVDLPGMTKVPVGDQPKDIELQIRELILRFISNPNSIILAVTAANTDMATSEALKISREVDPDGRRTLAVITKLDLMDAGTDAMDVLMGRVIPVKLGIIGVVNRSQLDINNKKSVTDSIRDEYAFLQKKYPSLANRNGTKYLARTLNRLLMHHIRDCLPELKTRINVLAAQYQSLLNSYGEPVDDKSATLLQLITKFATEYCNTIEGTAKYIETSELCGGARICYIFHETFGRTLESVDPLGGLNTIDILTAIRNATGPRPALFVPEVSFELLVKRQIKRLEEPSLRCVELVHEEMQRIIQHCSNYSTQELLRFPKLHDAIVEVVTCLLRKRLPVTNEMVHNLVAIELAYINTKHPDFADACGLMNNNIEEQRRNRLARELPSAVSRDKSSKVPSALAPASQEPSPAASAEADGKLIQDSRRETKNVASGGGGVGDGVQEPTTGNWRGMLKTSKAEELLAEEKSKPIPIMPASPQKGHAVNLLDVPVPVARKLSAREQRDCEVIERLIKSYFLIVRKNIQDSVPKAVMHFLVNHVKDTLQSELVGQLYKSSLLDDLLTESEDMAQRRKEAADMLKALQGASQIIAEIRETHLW

Molecular target: Axin1 (human (endogenous in ARPE-19)) (UniProt O15169)
Test: co-IP; endogenous proteins in ARPE-19 cell lysate; 3 ug Axin1 antibody or control rabbit IgG at 4 °C overnight, protein A and G magnetic beads 4 h at 4 °C; lysis buffer 20 mM Tris-HCl pH 8, 137 mM NaCl, 1% IGEPAL CA-630, 0.1% Triton X-100, 2 mM EDTA; western blot

binding: binds
Substance: dynamin-related protein 1 (Drp1) (from UniProt O00429 1-736)
